Experimental findings from publication doi:10.1101/2023.10.10.561251 are described below.

These are yes or no findings as the source states them, for the method shown. Binding seen in cells or lysates may run through a third protein. Tags and fused reporters may be left off the sequences shown.

This assay deals with cpFeS-YFP. Description: co-IP.

B1: VIPP1-FLAG (Arabidopsis VIPP1 with a FLAG tag) (protein, UniProt O80796 65-330)
chain: CNGHGATMNLFERFSRVVKSYANALISSFEDPEKILEQTVIEMNSDLTKMRQATAQVLASQKQLQNKYKAAQQSSDDWYKRAQLALAKGDEDLAREALKRRKSFADNATALKTQLDQQKGVVDNLVSNTRLLESKIQEAKAKKDTLLARARTAKTATKVQEMIGTVNTSGALSAFEKMEEKVMAMESEADALTQIGTDELEGKFQMLETSSVDDDLADLKKELSGSSKKGELPPGRSTVAASTRYPFKDSEIENELNELRRKANDF
Consider B1, for which the binding result is reported as “no binding”.
